No constants are given. Whether binding was seen depends on the method and setting. Where a sequence is shown, tags or fusion partners need not be part of it.
Biological target: T1, GST-TRN-SR2 (transportin-SR2) (UniProt Q9Y5L0)
T1 sequence: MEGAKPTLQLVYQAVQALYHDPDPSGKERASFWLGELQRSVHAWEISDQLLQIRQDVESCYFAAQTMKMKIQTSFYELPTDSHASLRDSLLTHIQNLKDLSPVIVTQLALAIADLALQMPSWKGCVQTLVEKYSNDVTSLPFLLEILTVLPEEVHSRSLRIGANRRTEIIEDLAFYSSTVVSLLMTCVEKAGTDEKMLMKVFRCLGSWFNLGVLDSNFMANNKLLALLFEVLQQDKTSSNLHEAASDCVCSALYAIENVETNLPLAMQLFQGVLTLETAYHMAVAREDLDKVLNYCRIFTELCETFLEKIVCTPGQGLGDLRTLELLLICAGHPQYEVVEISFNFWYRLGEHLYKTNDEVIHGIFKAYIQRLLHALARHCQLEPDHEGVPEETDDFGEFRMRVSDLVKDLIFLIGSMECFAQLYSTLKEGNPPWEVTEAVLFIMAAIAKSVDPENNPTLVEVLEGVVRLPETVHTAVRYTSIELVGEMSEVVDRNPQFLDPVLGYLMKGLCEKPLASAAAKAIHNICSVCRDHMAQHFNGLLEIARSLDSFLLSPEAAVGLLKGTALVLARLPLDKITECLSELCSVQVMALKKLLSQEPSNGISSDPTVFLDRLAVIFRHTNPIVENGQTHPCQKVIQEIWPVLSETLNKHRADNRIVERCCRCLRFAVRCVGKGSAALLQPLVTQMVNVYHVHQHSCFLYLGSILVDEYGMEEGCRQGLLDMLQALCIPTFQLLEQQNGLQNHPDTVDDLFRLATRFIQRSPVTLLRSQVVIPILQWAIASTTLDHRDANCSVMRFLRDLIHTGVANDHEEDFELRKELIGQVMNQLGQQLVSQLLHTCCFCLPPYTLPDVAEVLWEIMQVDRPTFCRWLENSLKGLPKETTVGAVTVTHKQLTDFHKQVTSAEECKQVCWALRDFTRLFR
Assay: AlphaScreen or HTRF; 10 nM GST-TRN-SR2 titrated with 1 to 150 nM His6-tagged protein; glutathione donor and nickel-chelate acceptor beads; 25 mM Tris/HCl pH 7.4, 150 mM NaCl, 1 mM MgCl2, 0.1% Tween-20, 0.1% BSA; 1 h at 4°C, then 1.5 h at room temperature with beads; apparent Kd; both purified

The chains behind the UniProt entries cited, without tags or fusion partners.
UniProt P09471: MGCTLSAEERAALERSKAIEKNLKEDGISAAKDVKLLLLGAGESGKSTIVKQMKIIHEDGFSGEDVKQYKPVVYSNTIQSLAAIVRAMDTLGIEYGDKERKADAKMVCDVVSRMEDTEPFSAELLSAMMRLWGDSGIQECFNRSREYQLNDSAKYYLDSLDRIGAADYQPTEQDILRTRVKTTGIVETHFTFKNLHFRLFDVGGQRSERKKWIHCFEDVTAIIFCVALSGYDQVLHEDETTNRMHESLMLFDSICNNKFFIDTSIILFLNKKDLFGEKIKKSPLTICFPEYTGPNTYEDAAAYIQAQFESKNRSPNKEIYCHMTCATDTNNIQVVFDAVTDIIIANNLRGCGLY

Substance: His6-tagged human heterotrimeric G protein α oA subunit (from UniProt P09471 1-354)
- binding: no binding (tested: 1 to 150 nM)

Reference: publication PMC3041740, “Interplay between HIV Entry and Transportin-SR2 Dependency” (Retrovirology, 2011)
